Data on one molecule can be found in publication PMC7239482.

This test has as its target T1, GST-SID-3 (C. elegans) (UniProt Q10925).
T1 sequence: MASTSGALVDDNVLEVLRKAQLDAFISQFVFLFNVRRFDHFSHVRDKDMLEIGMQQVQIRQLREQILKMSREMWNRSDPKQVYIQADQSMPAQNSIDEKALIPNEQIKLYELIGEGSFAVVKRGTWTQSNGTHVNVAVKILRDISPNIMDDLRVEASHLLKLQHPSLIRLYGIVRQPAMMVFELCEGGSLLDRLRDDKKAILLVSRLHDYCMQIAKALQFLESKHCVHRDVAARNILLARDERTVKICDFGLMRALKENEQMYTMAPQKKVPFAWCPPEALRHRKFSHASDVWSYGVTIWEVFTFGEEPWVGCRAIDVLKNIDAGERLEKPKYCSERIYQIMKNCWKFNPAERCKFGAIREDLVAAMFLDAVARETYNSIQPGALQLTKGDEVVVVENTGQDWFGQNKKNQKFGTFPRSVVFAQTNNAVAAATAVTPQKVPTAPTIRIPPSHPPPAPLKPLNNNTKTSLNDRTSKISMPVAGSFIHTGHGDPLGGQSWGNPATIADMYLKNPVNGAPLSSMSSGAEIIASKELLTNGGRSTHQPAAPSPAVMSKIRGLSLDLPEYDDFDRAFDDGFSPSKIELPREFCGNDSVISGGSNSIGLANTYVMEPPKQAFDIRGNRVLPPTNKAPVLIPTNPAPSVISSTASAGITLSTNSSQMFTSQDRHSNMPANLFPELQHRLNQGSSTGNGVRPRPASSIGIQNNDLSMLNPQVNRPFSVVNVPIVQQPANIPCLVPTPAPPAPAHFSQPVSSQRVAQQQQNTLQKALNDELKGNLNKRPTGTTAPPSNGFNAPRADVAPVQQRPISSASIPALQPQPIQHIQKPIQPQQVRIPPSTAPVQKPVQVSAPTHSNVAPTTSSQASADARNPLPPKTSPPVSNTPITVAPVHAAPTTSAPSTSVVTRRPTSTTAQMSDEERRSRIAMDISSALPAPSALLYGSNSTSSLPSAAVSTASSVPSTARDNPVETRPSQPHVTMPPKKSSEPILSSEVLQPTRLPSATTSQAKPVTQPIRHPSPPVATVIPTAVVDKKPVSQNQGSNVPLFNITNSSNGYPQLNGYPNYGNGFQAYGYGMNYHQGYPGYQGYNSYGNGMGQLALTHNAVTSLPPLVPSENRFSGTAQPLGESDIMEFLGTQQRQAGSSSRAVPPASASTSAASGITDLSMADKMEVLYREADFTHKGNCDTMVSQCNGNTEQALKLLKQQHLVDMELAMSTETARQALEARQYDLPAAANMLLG
Kind of test: pull-down; GST fusion on glutathione sepharose 4B beads; in vitro translated HA-tagged protein (15 μL TNT mix in 700 μL binding buffer) bound at 4°C overnight; washes in 50 mM Tris pH 8.0, 300 mM NaCl, 0.2% NP-40, 1 mM DTT; anti-HA blot; only the target purified.

These are yes or no findings as the source states them, for the method shown. Binding seen in cells or lysates may run through a third protein. Where a sequence is shown, tags or fusion partners need not be part of it.

B1: HA-RAB-10(Q68L) (protein, UniProt Q94148 1-201)
chain: MARRPYDMLFKLLLIGDSGVGKTCILYRFSDDAFNTTFISTIGIDFKIKTIELKGKKIKLQIWDTAGLERFHTITTSYYRGAMGIMLVYDITNAKSFDNIAKWLRNIDEHASEDVVKMILGNKCDMSDRRVVSRERGEKIAQDHGISFHETSAKLNVHVDTAFYDLAEAILAKMPDSTDEQSRDTVNPVQPQRQSSSGGCC
On to B1, for which the binding result is on record as “no binding”.
